Test results taken from patent US8202696.
No constants are given. Whether binding was seen depends on the method and setting. Some binding calls cover weakened binding; strength is not graded here.

Target: T1, MID1 B-box 1 (residues 110-165), yeast two-hybrid bait (human) (UniProt O15344)
T1 sequence: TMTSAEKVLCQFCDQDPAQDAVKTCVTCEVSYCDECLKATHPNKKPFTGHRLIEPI
Assay: yeast two-hybrid, deletion studies with α4 (preliminary data)

B1: small part of α4 (44 amino acids), yeast two-hybrid deletion construct (peptide)
peptide: ERPPVKPFILTRNMAQAKVFGAGYPSLPTMTVSDWYEQHRKYGA
  binding: binds
